PubChem BioAssay AID602196 | INSERM | 2012

- Assay: 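Genes whose knock-down alters cisplatin killing of lung cancer cells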
- Cell system: human A549 lung cancer cells
- Knock-down reagent: siRNA pair against human genes
- Timing: 48 h transfection before cisplatin; time from cisplatin to read-out not stated
- Conditions: cisplatin at a dose killing half of control-siRNA cells; exact dose and duration not given
- Detection: 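Shift in cisplatin death relative to control siRNA, from -50 (all cells die) to +50 (no cells die); siRNAs harmful on their own scored 0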
- Reading the numbers: two-siRNA summed score (-2 to +2): higher = both siRNAs protect from cisplatin killing; -2 means both sensitise; mean protection from cisplatin (shift in death) and protection from cisplatin (shift in death), siRNA C and protection from cisplatin (shift in death), siRNA D: higher = protection from cisplatin killing
- Rule for the call: 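siRNAs harmful alone (LDH or WST-1) get 0; others get +1 for less and -1 for more cisplatin killing; genes are active when the two siRNAs give the same sign, summing to ±2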
- Meaning of the calls: active = both siRNAs shift cisplatin killing the same way; inactive = no consistent shift, or siRNA harmful alone
This is an unselected part of about 23,000 reagents. 455 of all reagents (2%) were called active. 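Active includes both protection and sensitisation; some change values fall well beyond the stated -50 to +50 range.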 Reagent sequences are not shown. Not given: the amount of reagent.

Target gene,PubChem SID,two-siRNA summed score (-2 to +2),mean protection from cisplatin (shift in death) (%),"protection from cisplatin (shift in death), siRNA C (%)","protection from cisplatin (shift in death), siRNA D (%)",Call
ZNF888,SID131508639,0,1.3,5.8,-3.2,inactive
MSLN,SID131501170,-1,-11.8,-2,-21.6,inactive
RBP7,SID131505760,0,-2.6,-4.4,-0.9,inactive
LOC441186,SID131521529,1,13.9,8,19.7,inactive
CACYBP,SID131501578,-1,-8.9,-2.6,-15.2,inactive
KIF3B,SID131502372,-1,-3,12.7,-18.6,inactive
LOC92235,SID131500571,-1,-21.1,-31.3,-10.9,inactive
EXTL2,SID131519913,1,8,3.7,12.2,inactive
TUBB2A,SID131501272,-1,-10.9,0.1,-21.8,inactive
LINC02774,SID131512793,0,5.9,8.1,3.6,inactive
S100A9,SID131503936,0,-7.1,-6.6,-7.6,inactive
TRIM51G,SID131503688,0,-8.4,-3.5,-13.4,inactive
TESK2,SID131518940,1,-2.3,8,-12.7,inactive
PGK1,SID131514552,0,7.9,-0.7,16.5,inactive
UBE2A,SID131516031,0,10.1,11.4,8.9,inactive
SGSM3,SID131518685,0,24.3,22.1,26.5,inactive
PRKAB2,SID131512534,0,5.6,4.7,6.5,inactive
LOC400888,SID131515509,0,9.3,15,3.6,inactive
TADA2A,SID131512046,0,5.1,5.8,4.4,inactive
NSRP1,SID131506447,0,-1.5,-1,-2,inactive
PHYH,SID131518871,0,34.4,2.3,66.5,inactive
CFAP74,SID131504307,0,-5.8,-13.3,1.7,inactive
CFAP74,SID131519018,1,1,-15.4,17.4,inactive
